# Experimental data published in PubChem BioAssay AID504444 (National Center for Advancing Translational Sciences (NCATS), 2011).
# Out of some 360,000 compounds screened, about 7,500 (2.1%) were called active. The inconclusive results got no clear call from the source; some entries with a clear call stand among them for comparison. Calls follow the shape of the dose curve; as a rule, active = well fitted inhibition curve with a large enough effect; inconclusive = small, poorly fitted or top-dose-only effect, or effect the other way; inactive = flat fitted curve, though single readings scatter. A potency beside an inconclusive call is a rough fit, not a confirmed value.
# Test: Nrf2 qHTS screen for inhibitors; also: nearly all actives have a fitted effect of over 60% in size
# Settings: A549 ARE-Fluc reporter, luciferase luminescence, 18-24 h; series mostly up to 46 µM
# Outline: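 Nrf2 function is reported as luminescence of an ARE-controlled luciferase in A549 cells. Compounds were tested at several concentrations, and a CellTiter-Fluor read on the same wells flagged cytotoxicity.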
# Potency is read from the fitted curve at half-maximal effect.
row,SMILES,Potency
1,O=C(CNS(=O)(=O)c1ccccc1)N/N=C/c1ccccc1[N+](=O)[O-],"inconclusive: 5.8 µM [falling, partial curve]"
2,C=CCOc1ccc(Br)cc1/C=C1/SC(=Nc2ccc(C(=O)O)cc2)NC1=O,inactive
3,CCOC(=O)c1c(C)n(S(=O)(=O)c2ccc(C)cc2C)c2ccc(NS(=O)(=O)c3ccc(C)cc3C)cc12,inactive
4,Cc1cc(C(=O)NC2=NCCS2)cs1,"inconclusive: 9.2 µM [activator, partial curve, poor fit]"
5,COc1ccccc1NCC(=O)N/N=C/c1sccc1C,"inconclusive: 14.6 µM [activator, partial curve]"
6,CC(=O)Nc1ccc(C(=O)OCC(=O)c2cccc([N+](=O)[O-])c2)cc1,inactive
7,CC(=O)Oc1oc(-c2ccccc2)nc1C=Nc1ccccc1,inactive
8,Cc1nc2ccccn2c1C(=O)N/N=C/c1ccc2c(c1)OCO2,"inconclusive: 14.6 µM [activator, partial curve]"
9,Cc1cccc(C(=O)NNC(=O)c2ccc(Br)cc2)c1,"inconclusive: 18.4 µM [activator, single point]"
10,Cc1ccc(C2=Nc3ccccc3N(CC(=O)Nc3ccccc3F)C(=O)C2)cc1C,inactive
11,Cc1cccc(NC(=O)c2ccc(Cn3cc(C(F)(F)F)ccc3=O)cc2)c1,"inconclusive: 16.4 µM [falling, partial curve]"
12,CCCn1c(C)cc(C(=O)CN2C(=O)c3cccc(N)c3C2=O)c1C,"inconclusive: 1.46 µM [activator, partial curve]"
13,CC(=O)Oc1ccc(C(=O)Cc2ccc3ccccc3n2)c(O)c1C,"inconclusive: 3.26 µM [falling, partial curve, poor fit]"
14,CCc1nn(CCCC(=O)N2CCN(c3cc(Cl)ccc3C)CC2)c(=O)c2cc3occc3n12,"inconclusive: 29.1 µM [falling, single point]"
15,COn1c2c(c3c4nonc4ccc31)CCCC2,"inconclusive: 23.1 µM [falling, partial curve, poor fit]"
16,Cc1cccc(-n2cc(CN(C)Cc3nccn3C)c(-c3cccc(F)c3)n2)c1,"inconclusive: 0.206 µM [falling, partial curve, poor fit]"
17,CCOc1ccc2nc(NC(=O)C3CCCN(S(=O)(=O)c4c(C)noc4C)C3)sc2c1 (configuration not stated),active: 20.6 µM
18,CC(=O)c1ccc(NC(=O)C(Cc2ccccc2)n2cccc2)cc1 (configuration not stated),inactive
19,O=C(OCC#CCSc1nnc(-c2ccc3ccccc3c2)o1)c1cccs1,"inconclusive: 11.6 µM [activator, partial curve]"
20,O=C(Nc1ccc(Br)cc1)N1CCCCC1,"inconclusive: 23.1 µM [activator, single point]"
21,N#C/C(=C/c1ccc(Sc2nc3ccccc3[nH]2)o1)c1cccc(Br)c1,active: 16.4 µM

row,SMILES,Potency
1,Cc1ccoc1C(=O)Nc1ccc2ccccc2c1,"inconclusive: 0.259 µM [activator, full curve, poor fit]"
2,COc1ccc(C(=S)N2CCOCC2)cc1OC(=O)c1ccc(C)cc1,"inconclusive: 29.1 µM [falling, single point]"
3,c1ccc(OCc2nc(-c3cccs3)no2)cc1,"inconclusive: 11.6 µM [activator, partial curve]"
4,O=C1c2cccc(OCC(=O)N3CCCc4ccccc43)c2CCN1Cc1ccc(Br)cc1,"inconclusive: 29.1 µM [falling, single point]"
5,C=CS(=O)(=O)c1ccc(Oc2ccc(S(=O)(=O)C=C)cc2)cc1,active: 18.4 µM
6,N#Cc1c(-c2cccnc2)c2c([nH]c1=S)CCCC2,"inconclusive: 0.259 µM [activator, full curve, poor fit]"
7,COc1ccc2nc(SCC(=O)NC(C)C)[nH]c2c1,"inconclusive: 29.1 µM [activator, single point]"
8,Cc1ccc(N(c2ncnc(N)c2[N+](=O)[O-])C2CCCCC2)cc1,"inconclusive: 18.4 µM [falling, single point]"
9,CCc1cc(C(=O)c2ccc(OC)cc2)c(NC(=O)CN2CCCCC2)s1,inactive
10,Cc1ccc(S(=O)(=O)N2CCN(C(=O)C3CCN(C(=O)c4ccccc4C)CC3)CC2)cc1C,"inconclusive: 23.1 µM [falling, partial curve, poor fit]"
11,Cc1cccc(Oc2coc3cc(OC(=O)c4cc5ccccc5oc4=O)ccc3c2=O)c1,"inconclusive: 18.4 µM [activator, single point]"
12,Cc1ccccc1N1CCN(C2CCCN(C(=O)c3noc4c3CCCC4)C2)CC1 (configuration not stated),"inconclusive: 29.1 µM [falling, partial curve, poor fit]"
13,Cc1ccc(-c2nc3cc(Cl)ccc3o2)cc1NC(=O)c1cc([N+](=O)[O-])ccc1N1CCOCC1,"inconclusive: 11.6 µM [activator, partial curve, poor fit]"
14,Cc1nc(-c2ccccc2)sc1-c1ccc(SCC(=O)Nc2cccc(C(F)(F)F)c2)nn1,"inconclusive: 29.1 µM [falling, single point]"
15,COc1cccc(C2CC(=O)Nc3cc4c(cc32)OCO4)c1OC(C)C (configuration not stated),"inconclusive: 23.1 µM [falling, single point]"
16,COc1ccc(C2=CCC3CCCCN3C2)cc1OC (configuration not stated),inactive
17,C/C(=N/NC(=O)c1ccccc1)C(=O)O,"inconclusive: 3.26 µM [activator, partial curve, poor fit]"
18,CC(=O)Oc1ccc2cc(-c3nc4ccccc4n3C)c(=O)oc2c1,"inconclusive: 6.51 µM [activator, partial curve]"
19,CCn1cc(Cl)c(C(=O)N2N=C(c3ccc4ccccc4c3)CC2c2ccccc2O)n1 (configuration not stated),"inconclusive: 29.1 µM [falling, single point]"
20,CSc1ccc(/C=N/N2CCN(Cc3ccc(Cl)cc3)CC2)cc1,"inconclusive: 29.1 µM [falling, single point]"
21,CCc1ccc2nc(Nc3ccc(OC)cc3OC)c(C#N)cc2c1,"inconclusive: 1.46 µM [activator, full curve, poor fit]"

# Molecules from the list above with a CF3 group, in the order listed:
row,SMILES,Potency
11,Cc1cccc(NC(=O)c2ccc(Cn3cc(C(F)(F)F)ccc3=O)cc2)c1,"inconclusive: 16.4 µM [falling, partial curve]"
14,Cc1nc(-c2ccccc2)sc1-c1ccc(SCC(=O)Nc2cccc(C(F)(F)F)c2)nn1,"inconclusive: 29.1 µM [falling, single point]"
